# Laboratory results published in patent US12209145B2 (Merck Sharp & Dohme LLC, priority 2018, dated 2025).
# Experiment: general procedure: Fmoc solid-phase peptide synthesis; PS Rink-Amide MBHA resin; HATU/DIPEA; DIC/Oxyme
# Settings: whole synthesis, scale 0.250 mmol, TFA, Cl or AcOH salts (Table 2)
row,Substance,crude mass [mg]
1,Reagent A Int-A,399
2,Reagent B Int-A,300
